The test system of series [1] is protein tyrosylphosphorylation of hepatic S-9 proteins. The series is described as follows: Immunoblot / densitometry of hepatic S-9 phosphotyrosyl proteins, mice dosed i.p. Type of series: in vivo, C57BL/6 mice. The method, then:
Female, C57BL/6 mice (or any cytochrome P-450IA1 inducible strain) were obtained from Harton Sprague Dawley (Indianapolis, Ind.). Experiments were performed using four to six week old, female mice weighing approximately 16 to 20 g. Mice were fed Prolab RMH 1000 rat, mouse and hamster food (Agway, Cortland, N.Y.) and received tap water ad libitum. All mice were housed three to five per cage and maintained on a photoperiod of 12 hours. Mice were killed 24 hours following an intraperitoneal injection of either corn oil alone or TCDD (Analabs) at 0.25, 0.5, 1, 2, 4, 10, 50 μg/kg, the volume of the injections ranged from 0.1 to 0.2 ml per mouse. Hepatic S-9 fractions were prepared by homogenizing the liver in 3 times the volume of 0.15M KCl. Following a 9000×g centrifugation for 20 minutes, the supernatant (S-9) fraction was carefully removed and quickly frozen for storage at -80° C.
The separation of S-9 proteins by means of SDS PAGE was performed by mixing the S-9 1:1 with a double strength sodium dodecyl sulfate sample buffer and heating the solution at 100° C. for 3 minutes prior to one-dimensional SDS polyacrylamide gel electrophoresis with 10% polyacrylamide. […] Complete transfers were accomplished in 25-30 minutes at 500 mA and were assessed by tracking pre-stained molecular weight standards onto the membrane filter. […]

Series [2] deals with protein tyrosylphosphorylation in X3 human lymphoblastoma cells. The experiment in a line: Immunoblot / densitometry of X3 cell lysate phosphotyrosyl proteins. In kind it is cell-based. The procedure: The indicated densitometric measurements were made on a BioImage AK Kodak Visage 110.
The X3 human lymphoblastoma cells (Genetest, Wolburn, Mass.) were grown in 75 cm^2 T-flasks in RPMI 1640 medium (Gibco) containing 9% horse serum. Any cell or cell line expressing cytochrome P-450IA1 may be used. The cells were cultured at 37° C. in a 5% CO2 (balance air) environment. Cells were subcultured by centrifuging (1000 rpm, 3 minutes) and resuspended in fresh media to a volume of 50 mL (at a cell density of 1.0×10^6 cells/mL). The TCDD-corn oil solution was homogenized with serum to a final concentration of 0.10 μg/mL. The TCDD-serum was added at concentrations of 0, 0.02, 0.05, 0.1, 0.5 and 1.0 nM per flask and incubated for 16 hours. After the appropriate incubation time, the cells were harvested by centrifugation and washed three times (PBS, […]). A final cell count was then determined.
The separation of cell lysate proteins by means of SDS PAGE was performed by mixing the cell lysate 1:1 with a double strength sodium dodecyl sulfate sample buffer and heating the solution at 100° C. for 3 minutes prior to one-dimensional SDS polyacrylamide gel electrophoresis with 10% polyacrylamide. After electrophoresis, a Milliblot SDE electroblot apparatus (Millipore, Bedford, Mass.) was used to transfer the proteins from the polyacrylamide gels to an Immobilon™ membrane filter (Millipore). Complete transfers were accomplished in 25-30 min at 500 mA and were assessed by tracking pre-stained molecular weight standards onto the membrane filter. Membrane filters were blocked by incubating in TBS (Tris buffered saline) containing 5% milk for 30 minutes at 37° C. The membranes were then washed in TBST (TBS with 0.05% Tween 20) and incubated overnight with antiphoshphotyrosine monoclonal antibody (1.5 μg/mL) in TBST. The primary antibody was removed, and the membranes were washed four times in TBST. […]
In general terms: In western blotting, separated proteins are transferred to a membrane and probed.

As to `Clc1cc2c(cc1Cl)Oc1cc(Cl)c(Cl)cc1O2` [TCDD, 2,3,7,8-tetrachlorodibenzo-p-dioxin], the “amount of dioxin equivalents required to initiate tyrosylphosphorylation of 37 kDalton protein” value in series [1] (assuming a 20 g mouse) is 5 ng. Besides, in series [1] (extract of a 10 g sample, 37 kDalton protein), the “limit of detection, dioxin equivalents in sample” value worked out at 400 parts per trillion. Besides, in series [2] (assuming a 100 μL incubation well), the “amount of dioxin equivalents required to initiate tyrosylphosphorylation of 57 kDalton protein” value was “approximately 37.5 pg”. Further, the “limit of detection, dioxin equivalents in sample (57 kDalton protein)” value in series [2] (extract of a 2 g sample) was determined as 20 parts per trillion. Also, the “limit of detection based on 33 kDalton protein” value in series [2] (response at the EC50 of 0.04 nM) was “approximately 4 ppt”.
